About 22,000 (6.9%) of roughly 320,000 compounds were called active. Inconclusive results, whose numbers are uncertain, are shown with a selection of clear calls. Calls come from the whole dose curve; as a rule, active = well fitted inhibition curve with a large enough effect; inconclusive = small, poorly fitted or top-dose-only effect, or another doubt; inactive = no such curve, though single readings can be large or run the other way. Potencies beside an inconclusive call are fits to weak or partial responses and may not hold up.
Experiment: Primary qHTS for delayed death inhibitors of the malarial parasite plastid, 96 hour incubation
Settings: P. falciparum luciferase reporter growth; series mostly up to 28.7 µM
Summary of the method: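 Two-generation exposure (96 h) targets delayed-death phenotype. Reporter parasites carrying integrated firefly luciferase, in red cells at 2% hematocrit and 0.05% parasitemia final, kept at 37 C, 5% CO2; luminescence loss indicates inhibition.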
Potency is the fitted concentration of half-maximal effect.

Compound	Potency
CCOC(=O)C(CC)(CC)/C(C)=N/NC(=O)CC#N	inactive
N#CCC(=O)Nc1ccc(C(=O)OCc2ccccc2Oc2ccccc2)cc1	inconclusive: 8.28 µM [inhibitor, partial curve, poor fit]
CC(C)(C)c1ccc(C2CC2C(=O)N/N=C\c2cc3ccccc3nc2Cl)cc1 (centres undefined)	inconclusive: 0.147 µM [inhibitor, full curve]
CCOC(=O)N1CCc2c(sc(N)c2C#N)C1	inactive
COc1ccc(N2CCC(CNC(=S)Nc3c(C)cccc3C)C2)cc1 (centres undefined)	inconclusive: 2.62 µM [inhibitor, full curve]
CCOC(=O)N1CCC(N2CCCC(CO)(Cc3cccc(OC)c3)C2)CC1 (centres undefined)	active: 3.29 µM
Cc1nn(Cc2ccccc2Cl)c(C)c1C(=O)NC1CCCc2ccccc21 (centres undefined)	inconclusive: 13.1 µM [inhibitor, single point]
CCOc1ncccc1C(=O)Nc1ccc(C)c(S(=O)(=O)N2CCCCCC2)c1	inconclusive: 11.7 µM [inhibitor, single point]
COc1ccc(N2CCN(C3CCN(S(=O)(=O)c4ccc(F)cc4)CC3)CC2)cc1	inconclusive: 9.28 µM [inhibitor, single point]
COc1ccc(-c2csc(NC(=O)C3=NN(c4ccccc4)C(=O)CC3)n2)cc1	inconclusive: 0.104 µM [inhibitor, full curve, poor fit]
COc1n[nH]c(C(=O)Nc2cc(Cl)ccc2Cl)c1[N+](=O)[O-]	active: 4.65 µM
COC(=O)CCn1nnc(-c2ccc(C(C)C)cc2)n1	inconclusive: 1.47 µM [inhibitor, partial curve]
COc1ccc(N(C(=O)c2ccc(S(=O)(=O)N3CCCC3)cc2)C2C=CS(=O)(=O)C2)cc1 (centres undefined)	inactive
O=C1COc2ccc(S(=O)(=O)N3CCCC3)cc2N1	inactive
Cc1ccccc1CS(=O)(=O)c1ccc(C(=O)N2CCC(C)CC2)cc1[N+](=O)[O-]	inconclusive: 10.4 µM [inhibitor, single point]
CN(C)CCNc1nc(-c2ccccc2)c2c(c1C#N)CC(C)(C)OC2	inconclusive: 9.28 µM [inhibitor, single point]
COc1cc(/C=C2/C(=N)N3OC(C)=CC3=NC2=O)ccc1OCCOc1ccc(C)cc1	inconclusive: 8.28 µM [inhibitor, partial curve, poor fit]
COc1ccc(Cl)cc1NS(=O)(=O)c1cccc(C(=O)N2CC(C)OC(C)C2)c1 (centres undefined)	inconclusive: 16.5 µM [inhibitor, single point]
Cc1ccc(S(=O)(=O)N2CCOCC2)cc1C(=O)NCc1cn2ccsc2n1	inconclusive: 2.33 µM [inhibitor, single point]

Single values from the list.
`Cc1nn(Cc2ccccc2Cl)c(C)c1C(=O)NC1CCCc2ccccc21` (centres undefined) – Potency: inconclusive: 13.1 µM [inhibitor, single point]
`COc1ccc(-c2csc(NC(=O)C3=NN(c4ccccc4)C(=O)CC3)n2)cc1` – Potency: inconclusive: 0.104 µM [inhibitor, full curve, poor fit]

From PubChem BioAssay AID504834 (National Center for Advancing Translational Sciences (NCATS), 2011)
